Assay results taken from paper PMC12383145 (Antibiotics, 2025).

Assay: general procedure: Fmoc solid-phase peptide synthesis; Rink amide MBHA resin (0.46 meq/g); DCC/6-Cl-HOBt; TBTU/DIPEA for probes
Conditions: whole synthesis, scale of the general procedure 150 mg resin

Row | Substance | final HPLC purity (210 nm) [%] | crude HPLC purity (RP-HPLC) [%] | final HPLC purity (RP-HPLC) [%]
1 | (RRWQWR-hF-KKLG)2K-Ahx | 97.2 |  | 
2 | (RhB-RRWQWR-hF-KKLG)2K-Ahx | 98.4 |  | 
3 | PEPTIDE1{R.W.Q.W.R.W.Q.W.R.[2-Abz].[am]}$$$$V2.0 | 88.4 | 24.0 | 85.5
4 | PEPTIDE1{R.W.Q.W.R.W.Q.W.R.[am]}$$$$V2.0 | 93.1 |  | 
5 | PEPTIDE1{[2-Abz].R.W.Q.W.R.W.Q.W.R.[am]}$$$$V2.0 | 89.7 |  | 

HELM strings list residues between dots; [ac] is acetyl, [am] amide, other brackets name non-standard units.
